Experimental data: PubChem BioAssay AID1259308 (NCATS, 2017)

Assay: 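Candidate targets for better recombinant protein yield in mammalian cells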 (primary screen)
Cells: human HEK293 embryonic kidney cells stably expressing firefly luciferase (HEK-CMV-Luc2-Hygro)
Knock-down reagent: single siRNA against human genes, 0.8 pmol siRNA per well
Timing: 72 h
Measurement: 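Reporter luminescence and viable-cell signal on separate replicate plates, given as percent of non-targeting control and median/MAD z-scores, plus per-cell luciferase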
Direction: total luciferase, z-score and total luciferase, % of control: higher = more reporter protein produced
Rule for the call: 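An siRNA counts as active if its total luciferase robust z-score exceeds 3; genes with two or more such siRNAs out of three were retested with fresh siRNAs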
Calls: active = raised luciferase; inactive = no rise
The whole screen tested about 59,000 reagents; below is a part drawn at random. About 1,510 of them (2.6%) were called active. 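Calls use total luciferase alone and ignore viability, so some active siRNAs may act by altering cell number.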 Entries without a mark were called inactive. The numbers tell different reagents against one gene apart. Not all columns of the deposit are shown.

What did the screen give for DCAF4L1 (DDB1 and CUL4 associated factor 4 like 1) #1?
total luciferase, z-score: -0.59; total luciferase, % of control: 70.1

What did the screen give for DCAF4L1 (DDB1 and CUL4 associated factor 4 like 1) #2?
total luciferase, z-score: 1.29; total luciferase, % of control: 108

With DCAF4L1 (DDB1 and CUL4 associated factor 4 like 1) #3, what was measured?
total luciferase, z-score: 0.93; total luciferase, % of control: 100

What is on record for DGKA (diacylglycerol kinase alpha) #1?
total luciferase, z-score: -0.125; total luciferase, % of control: 79.4

With DGKA (diacylglycerol kinase alpha) #2, what was measured?
total luciferase, z-score: -1.34; total luciferase, % of control: 55.1

Which result is listed for DGKA (diacylglycerol kinase alpha) #3?
total luciferase, z-score: -0.0649; total luciferase, % of control: 80.6

For LOC728877 (Zn regulated GTPase metalloprotein activator 1C pseudogene) #1, what does the deposit list?
total luciferase, z-score: -0.43; total luciferase, % of control: 73.3

For LOC728877 (Zn regulated GTPase metalloprotein activator 1C pseudogene) #2, how do the results read?
total luciferase, z-score: 0.533; total luciferase, % of control: 92.5

What did the screen give for LOC728877 (Zn regulated GTPase metalloprotein activator 1C pseudogene) #3?
total luciferase, z-score: -0.665; total luciferase, % of control: 68.7

For FHL2 (four and a half LIM domains 2) #1, what was measured?
total luciferase, z-score: -0.947; total luciferase, % of control: 63

What did the screen give for FHL2 (four and a half LIM domains 2) #2?
total luciferase, z-score: -0.632; total luciferase, % of control: 69.3

Which result is listed for FHL2 (four and a half LIM domains 2) #3?
total luciferase, z-score: -1.48; total luciferase, % of control: 52.5

With PPP4C (protein phosphatase 4 catalytic subunit) #1, what was measured?
total luciferase, z-score: 1.95; total luciferase, % of control: 121

How did the screen score PPP4C (protein phosphatase 4 catalytic subunit) #2?
total luciferase, z-score: 0.884; total luciferase, % of control: 99.5

What is on record for PPP4C (protein phosphatase 4 catalytic subunit) #3?
total luciferase, z-score: -0.749; total luciferase, % of control: 67

Copied from the list.
PPP4C (protein phosphatase 4 catalytic subunit) #3, total luciferase, % of control → 67
FHL2 (four and a half LIM domains 2) #3, total luciferase, % of control → 52.5
Under “total luciferase, % of control”, FHL2 (four and a half LIM domains 2) #1 has 63

The list goes on:
Which result is listed for HNRNPUL2 (heterogeneous nuclear ribonucleoprotein U like 2) #1?
total luciferase, z-score: 0.104; total luciferase, % of control: 84

With HNRNPUL2 (heterogeneous nuclear ribonucleoprotein U like 2) #2, what does the deposit list?
total luciferase, z-score: 0.377; total luciferase, % of control: 89.4

What did the screen give for HNRNPUL2 (heterogeneous nuclear ribonucleoprotein U like 2) #3?
total luciferase, z-score: 0.485; total luciferase, % of control: 91.5

For CAPZB (capping actin protein of muscle Z-line subunit beta) #1, what does the deposit list?
total luciferase, z-score: 1.36; total luciferase, % of control: 109

With CAPZB (capping actin protein of muscle Z-line subunit beta) #2, what was measured?
total luciferase, z-score: -0.836; total luciferase, % of control: 65.3

For CAPZB (capping actin protein of muscle Z-line subunit beta) #3, what does the deposit list?
total luciferase, z-score: 1.87; total luciferase, % of control: 119

What did the screen give for STK32C (serine/threonine kinase 32C) #1?
total luciferase, z-score: 1.25; total luciferase, % of control: 107

With STK32C (serine/threonine kinase 32C) #2, how do the results read?
total luciferase, z-score: 0.399; total luciferase, % of control: 89.8

For STK32C (serine/threonine kinase 32C) #3, what was measured?
total luciferase, z-score: 1.81; total luciferase, % of control: 118

For SPACA3 (sperm acrosome associated 3) #1, how do the results read?
total luciferase, z-score: 2.66; total luciferase, % of control: 135

What is on record for SPACA3 (sperm acrosome associated 3) #2?
total luciferase, z-score: -0.0213; total luciferase, % of control: 81.5

Which result is listed for SPACA3 (sperm acrosome associated 3) #3?
total luciferase, z-score: -0.415; total luciferase, % of control: 73.6

With BCL7A (BAF chromatin remodeling complex subunit BCL7A) #1, how do the results read?
total luciferase, z-score: 0.916; total luciferase, % of control: 100

Which result is listed for BCL7A (BAF chromatin remodeling complex subunit BCL7A) #2?
total luciferase, z-score: 0.371; total luciferase, % of control: 89.3

How did the screen score BCL7A (BAF chromatin remodeling complex subunit BCL7A) #3?
total luciferase, z-score: -0.531; total luciferase, % of control: 71.3

For FBXW2 (F-box and WD repeat domain containing 2) #1, what does the deposit list?
total luciferase, z-score: 0.471; total luciferase, % of control: 91.3

How did the screen score FBXW2 (F-box and WD repeat domain containing 2) #2?
total luciferase, z-score: -1.19; total luciferase, % of control: 58.2

Which result is listed for FBXW2 (F-box and WD repeat domain containing 2) #3?
total luciferase, z-score: -0.22; total luciferase, % of control: 77.5
